Measured values taken from patent US20090042785A1.
Where a chain is given by its changes, count along the chain named. These are yes or no findings as the source states them, for the method shown. Some results given as binding are weak or reduced against the parent protein; the word gives no strength. For part of these data: Where a sequence is shown, tags or fusion partners need not be part of it.

Sequences of proteins named here, by UniProt entry; tags and fusion partners are left off. A change or cut given only in a name is not applied to a line headed by its entry. A line that says so, or that is headed by a name, gives the form on record, which may keep a tag or linker.
UniProt P16410: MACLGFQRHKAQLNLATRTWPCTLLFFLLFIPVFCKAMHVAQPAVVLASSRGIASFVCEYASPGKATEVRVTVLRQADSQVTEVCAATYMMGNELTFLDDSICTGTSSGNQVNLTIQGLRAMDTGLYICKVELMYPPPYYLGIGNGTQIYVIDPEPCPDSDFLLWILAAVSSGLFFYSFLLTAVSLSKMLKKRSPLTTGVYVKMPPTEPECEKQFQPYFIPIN
cynomolgous CTLA-4 on the surface of transfected CHO cells (cynomolgous monkey (macaca fascicularis)) (G7PL88, form named): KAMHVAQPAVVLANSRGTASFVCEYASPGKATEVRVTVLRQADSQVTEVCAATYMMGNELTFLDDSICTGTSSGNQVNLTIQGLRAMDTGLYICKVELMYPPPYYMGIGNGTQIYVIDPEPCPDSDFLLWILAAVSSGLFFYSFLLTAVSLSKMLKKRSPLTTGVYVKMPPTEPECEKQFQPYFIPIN

How the values were obtained:
[1] = biological target: human CTLA-4-Fc (Chimerigen) (human) (UniProt P16410); assay: competition FACS: HuCTLA4-Ig 5 ug/ml (as printed on the axis) pre-incubated with the antagonist, then staining of P815 cells transfected with human B7.2; blocked ligand B7.2
[2] = biological target: human CTLA-4-Fc (Chimerigen) (human) (UniProt P16410); assay: competition FACS: HuCTLA4-Ig 10 ug/ml pre-incubated with the antagonist, then staining of P815 cells transfected with human B7.2; blocked ligand B7.2
[3] = biological target: human CTLA-4-Fc (Chimerigen) (human) (UniProt P16410); assay: competition FACS: 2.5 nM human CTLA-4 Fc pre-incubated with the antagonist, then staining of Raji cells; blocked ligands B7.1 and B7.2
[4] = biological target: human CTLA-4-Fc (Chimerigen) (human) (UniProt P16410); assay: SPR, compared with F09
[5] = biological target: cynomolgous CTLA-4 on the surface of transfected CHO cells (cynomolgous monkey (macaca fascicularis)) (UniProt G7PL88); assay: FACS histograms of transfected CHO cells
[6] = biological target: cynomolgous CTLA-4 on the surface of transfected CHO cells (cynomolgous monkey (macaca fascicularis)) (UniProt G7PL88); assay: FACS on transfected CHO cells
[7] = biological target: human CTLA-4-Fc (Chimerigen) (human) (UniProt P16410); assay: competition FACS: 2.5 nM human CTLA-4 Fc pre-incubated with the antagonist, then staining of Raji cells; % inhibition of CTLA-4 Fc binding; blocked ligands B7.1 and B7.2
[8] = biological target: human CTLA-4-Fc (Chimerigen) (human) (UniProt P16410); assay: high-throughput ELISA of cell extracts
[9] = biological target: human CTLA-4-Fc (Chimerigen) (human) (UniProt P16410); assay: FACS competition: hCTLA-4 Fc binding to Raji cells
[10] = biological target: human CTLA-4-Fc (Chimerigen) (human) (UniProt P16410); assay: high-throughput ELISA of crude cell extracts on captured hCTLA-4-Fc
[11] = biological target: human CTLA-4-Fc (Chimerigen) (human) (UniProt P16410); assay: SPR, compared with J08

B1: hNGAL mutein S94.7-Q13 (designed binder)
chain: QDSTSDLIPAPPLSKVPLQQNFQDNQFHGKWYVVGLAGNRILRDDQHPMNMYATIYELKEDKSYNVTSVIFPHKKCEYTIATFVPGSQPGEFTLGNIKSYGDKTSYLVRVVSTNYNQHATVFFKLAEDNAEFFAITIYGRTKELASELKENFIRFSKSLGLPENHIVFPVPIDQCIDGSAWSHPQF
With B1 the binding [1] was “binds” and the binding [2] was “binds”.

B2: hNGAL mutein S140.4-O10 without T7 tag (designed binder)
chain: QDSTSDLIPAPPLSKVPLQQNFQDNQFHGKWYVVGLAGNRILRDDQHPMNMYATIYELKEDKSYNVTSVISSHKKCEYTIATFVPGSQPGEFTLGNIKSYGDKTSYLVRVVSTDYNQYAVVFFKLAEDNAEFFAITIYGRTKELASELKENFIRFSKSLGLPENHIVFPVPIDQCIDG
With B2 the binding [3] was “binds”.

B3: hNGAL mutein S140.4-O10 (designed binder)
chain: B2 chain
In the case of B3, the binding [4] is reported as “binds”, the binding [5] is reported as “binds” and the binding [6] is reported as “binds”. The binding [7] was “binds” and the binding [8] was “binds”.

B4: S140.4-O10-ABD (fusion with the albumin binding domain of streptococcal protein G) (designed binder)
chain: QDSTSDLIPAPPLSKVPLQQNFQDNQFHGKWYVVGLAGNRILRDDQHPMNMYATIYELKEDKSYNVTSVISSHKKCEYTIATFVPGSQPGEFTLGNIKSYGDKTSYLVRVVSTDYNQYAVVFFKLAEDNAEFFAITIYGRTKELASELKENFIRFSKSLGLPENHIVFPVPIDQCIDGSGGAVDANSLAEAKVLANRELDKYGVSDYYKNLINNAKTVEGVKALIDEILAALPSAWSHPQFEK
For B4, the binding [7] was “binds” and the binding [9] was “binds”.

B5: hNGAL mutein S67.2-F03 (designed binder)
chain: B1 chain with T120M, A126V
With B5 the binding [2] was “binds” and the binding [10] was “binds”.

B6: hNGAL mutein S67.3-C21 (designed binder)
chain: QDSTSDLIPAPPLSKVPLQQNFQDNQFHGKWYVVGLAGNYIWRNDRYPMQMYATIYELKEDKSYNVTSVIFDTKKCEYPIATFVPGSQPGEFTLGNIKSYRMDTSYLVRVVSTNYNQHAMVFFKQVNHNTEHFAITIYGRTKELASELKENFIRFSKSLGLPENHIVFPVPIDQCIDGSAWSHPQF
For B6, the binding [10] was “binds”.

B7: hNGAL mutein S140.1-F09 (designed binder, not shown: small tags and cut ends)
chain: B2 chain with D114N
In the case of B7, the binding [8] is reported as “binds” and the binding [11] is reported as “binds”.

B8: hNGAL mutein S140.2-P24 (designed binder, not shown: small tags and cut ends)
chain: B2 chain with N50D, N116S
B8 was tested, and the binding [8] was “binds”.

B9: hNGAL mutein S140.3-P07 (designed binder, not shown: small tags and cut ends)
chain: B2 chain with S71F, S72P, N129D
With B9 the binding [8] was “binds”.

B10: hNGAL mutein S140.4-B16 (designed binder, not shown: small tags and cut ends)
chain: B2 chain with S71F, S72P, G95S, N96D
For B10, the binding [8] was “binds”.
